No constants are given. Whether binding was seen depends on the method and setting. Binding seen in cells or lysates may run through a third protein. Tags and fused reporters may be left off the sequences shown.
Target: Flag-CtBP2 (C-terminal-binding protein 2, from pcDNA3-2×Flag-CtBP2) (human), P56545
Experiment: co-IP; Flag-tagged and Myc-tagged plasmids co-transfected into HC-OA cells, 48 h, lysed, anti-Flag agarose and anti-c-Myc agarose 4°C 2 h, four washes with 1×RIPA; blots with anti-Flag and anti-Myc
Conditions: remark: other sources report otherwise

B1: Myc-c-Jun (AP1 subunit, from pCDNA3-6×Myc-c-Jun), P05412 1-331 (protein)
chain: MTAKMETTFYDDALNASFLPSESGPYGYSNPKILKQSMTLNLADPVGSLKPHLRAKNSDLLTSPDVGLLKLASPELERLIIQSSNGHITTTPTPTQFLCPKNVTDEQEGFAEGFVRALAELHSQNTLPSVTSAAQPVNGAGMVAPAVASVAGGSGSGGFSASLHSEPPVYANLSNFNPGALSSGGGAPSYGAAGLAFPAQPQQQQQPPHHLPQQMPVQHPRLQALKEEPQTVPEMPGETPPLSPIDMESQERIKAERKRMRNRIAASKCRKRKLERIARLEEKVKTLKAQNSELASTANMLREQVAQLKQKVMNHVNSGCQLMLTQQLQTF
In the case of B1, the binding is reported as “no binding”.
